Publication PMC6770535
Results are given in words; binding and its absence hold for the method and conditions named. In cells and extracts the contact can be indirect. Some results given as binding are weak or reduced against the parent protein; the word gives no strength.

Protein sequences, listed by entry. Tags and fused reporters are not part of them.
UniProt P83916: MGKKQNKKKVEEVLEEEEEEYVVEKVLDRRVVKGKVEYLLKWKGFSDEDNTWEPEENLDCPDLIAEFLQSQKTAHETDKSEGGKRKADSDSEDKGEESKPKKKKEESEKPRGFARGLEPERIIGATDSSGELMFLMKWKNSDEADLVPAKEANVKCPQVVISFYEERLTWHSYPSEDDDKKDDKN
UniProt Q13185: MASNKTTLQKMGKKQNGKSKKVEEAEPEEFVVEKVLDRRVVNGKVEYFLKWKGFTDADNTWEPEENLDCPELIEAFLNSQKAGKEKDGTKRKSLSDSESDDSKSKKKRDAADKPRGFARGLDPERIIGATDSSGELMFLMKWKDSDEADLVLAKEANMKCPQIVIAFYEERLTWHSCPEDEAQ
UniProt Q13263: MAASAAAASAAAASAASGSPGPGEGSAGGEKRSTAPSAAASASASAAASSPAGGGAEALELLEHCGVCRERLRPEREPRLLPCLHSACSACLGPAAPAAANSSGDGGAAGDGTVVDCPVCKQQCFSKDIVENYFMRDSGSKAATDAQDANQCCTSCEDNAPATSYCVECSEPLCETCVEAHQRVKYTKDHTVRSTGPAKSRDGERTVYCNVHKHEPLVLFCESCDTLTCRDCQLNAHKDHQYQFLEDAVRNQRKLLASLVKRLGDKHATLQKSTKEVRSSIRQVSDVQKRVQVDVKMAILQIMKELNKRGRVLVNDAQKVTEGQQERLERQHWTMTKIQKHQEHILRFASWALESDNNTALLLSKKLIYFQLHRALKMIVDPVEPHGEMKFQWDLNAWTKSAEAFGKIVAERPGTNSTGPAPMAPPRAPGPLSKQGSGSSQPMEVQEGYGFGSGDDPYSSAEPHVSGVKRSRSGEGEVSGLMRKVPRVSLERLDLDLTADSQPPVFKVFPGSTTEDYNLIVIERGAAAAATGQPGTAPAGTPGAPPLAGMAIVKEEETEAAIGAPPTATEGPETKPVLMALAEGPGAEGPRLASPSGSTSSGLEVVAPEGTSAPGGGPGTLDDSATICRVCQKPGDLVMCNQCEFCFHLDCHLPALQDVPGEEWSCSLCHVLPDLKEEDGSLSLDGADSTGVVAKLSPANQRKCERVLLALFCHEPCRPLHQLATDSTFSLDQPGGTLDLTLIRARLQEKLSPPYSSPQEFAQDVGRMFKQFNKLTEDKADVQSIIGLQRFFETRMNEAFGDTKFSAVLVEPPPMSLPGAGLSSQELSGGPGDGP

Assays:
[1] = target: mCherry-HP1β (UniProt P83916); test: FRET or BRET; FLIM-FRET in HeLa cells co-transfected with a GFP-HP1 construct (donor) and mCherry-HP1β (acceptor); ten nuclei for each experimental event
[2] = target: HP1γ (heterochromatin protein 1 gamma), endogenous in HeLa cells (human (endogenous in HeLa)) (UniProt Q13185); test: co-IP; endogenous proteins of HeLa lysate (Pierce IP Lysis Buffer), Catch and Release v2.0 spin columns, overnight at 4 °C, antibodies to HP1α, HP1β or HP1γ, western blot; cells untreated, treated with SAHA (15 µM) or irradiated with γ-rays (5 Gy), harvested after 2 h
[3] = target: HP1β (heterochromatin protein 1 beta), endogenous in HeLa cells (human (endogenous in HeLa)) (UniProt P83916); test: as above

GFP-tagged HP1γ (from UniProt Q13185 1-183)
binding [1]: binds weakly

HP1β (heterochromatin protein 1 beta), endogenous in HeLa cells (from UniProt P83916 1-185)
binding [2]: binds

KRAB-associated protein 1 (KAP1), endogenous in HeLa cells (from UniProt Q13263 1-835)
binding [3]: binds
